Literature values as cited in patent US12194020B2, “Reversing baldness through cannabinoid receptor activation” (priority 2017, dated 2025).
Some of these results come from one statement about several compounds together.

Biological target: T1, 5α-reductase type 2 (Homo sapiens, UniProt P31213)
T1 construct: at maximum may decrease circulating DHT levels by 65 to 98%
T1 sequence (P31213 1-254): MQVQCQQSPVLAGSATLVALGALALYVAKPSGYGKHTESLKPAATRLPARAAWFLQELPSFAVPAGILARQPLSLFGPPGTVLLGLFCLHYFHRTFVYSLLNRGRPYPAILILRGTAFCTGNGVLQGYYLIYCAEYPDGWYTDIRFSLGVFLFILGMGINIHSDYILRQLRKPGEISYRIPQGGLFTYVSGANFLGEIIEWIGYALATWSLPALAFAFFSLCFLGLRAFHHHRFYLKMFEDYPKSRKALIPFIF
Details: at maximum

Which “decrease circulating DHT levels” value does the source give for C[C@]12C=CC(=O)N[C@@H]1CC[C@@H]1[C@@H]2CC[C@]2(C)[C@@H](C(=O)Nc3cc(C(F)(F)F)ccc3C(F)(F)F)CC[C@@H]12 [dutasteride] here?
The value was 65 to 98%.
